From PubChem BioAssay AID1508600 (Functional Genomics Laboratory (NCATS/FGL), 2020)
The campaign covered roughly 53,000 sequences. About 3,700 (7%) were called active.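 The calls were made as follows: active = gene knockdowns whose robust z-score for IL-1 alpha signal is at least 2 or at most -2, so actives lie on both sides; inactive = the rest.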 Some of the results follow.

Assay: Components of the Cytosolic LPS Sensing Pathway: Gene Identification via Genome-wide siRNA Screen;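 also: robust z of the log signal after scaling to non-targeting control siRNA wells of the plate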
Settings: RAW264.7 macrophages, IL-1a HTRF, actives lie on both sides, screened at 100 nM (by protocol), cells primed 5 h with Pam3CSK4 first
Procedure, shortened: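 Cells (RAW264.7, 1×10^4 per well) were transfected with siRNA at 100 nM and cultured 48h at 37 degrees C. Pam3CSK4 was added for 5 hours; LipidA transfection followed for 24 hour. IL-1a was then measured by HTRF.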

Row | Sequence | z-score
1 | CGUGGUUCCUCUUUGGUGUTT against Kcnj10 | inactive: -0.217
2 | GGGCUGAAGUUUUAUACCATT against Wasf1 | inactive: -0.83
3 | CCAAGAACCUUCGUCUGCUTT against Apobec2 | inactive: 0.91
4 | GGCUCACAGGACCUAUUUCTT against Col6a6 | active: -3.15
5 | GGUGUAUGGACAAGGAGUUTT against Pgpep1 | inactive: -0.79
6 | CGAGAAAAGAGGUUGGCUGTT against 6330444E15Rik | inactive: -0.366
7 | GGAUCCUGAACGAAAAAGGTT against Med19 | inactive: -0.0986
8 | GGAGGACCUUCAGAAACUCTT against Gdap2 | inactive: 1.14
9 | GGUAGAAAUUUACCUCAUUTT against Dusp4 | inactive: -1.42
10 | CCUGGCUAUUGGUGAGUGATT against Slc30a3 | inactive: 1.9
11 | GGAACUCACGCUGAGUUCCTT against Lrrtm1 | inactive: -0.269
12 | GGAAUACUGGUCUUGCUGUTT against Tspan17 | inactive: -1.73
13 | GGACUUGUGCAUUAAGUACTT against Fbxw11 | inactive: -0.768
14 | GGUUUCCAUGUUCUUCCGATT against Pxk | inactive: 0.37
15 | GCAGUUAAAGCAAGCCUCUTT against Tas2r107 | inactive: 0.401
16 | GGUGGACAUGAGAAAGUGUTT against Prorsd1 | inactive: -0.0626
17 | GGCUUGUAUGACAAUAAACTT against Vipr1 | inactive: -0.555
18 | CCCUGGUCCAUCUCUAGUGTT against Fblim1 | inactive: 0.14
19 | GGAAUUUGAAGCUCUUAUGTT against Add1 | inactive: 1.44
20 | GGAAUACAUCAUCCAGGUGTT against Cntfr | inactive: 0.156
21 | GGAGAAACUGGACAACCUGTT against Eno2 | active: 4.12
22 | GGCUACUAUACUGUUGAAGTT against Ceacam18 | inactive: 0.823
23 | GCAGAUUGGUUAAGUAUUCTT against Rttn | inactive: 0.583
24 | GGAGCAUCACAGAUAUCUATT against Ccr8 | inactive: -0.113
25 | GGUCAUAGCAUCUACGGCUTT against Gm4793 | inactive: -0.11
26 | GGCUUCCCGGAGUAACAAUTT against Dlgap1 | inactive: -0.742
27 | GGCAAGAAAGAAGUGGAACTT against Msl3l2 | inactive: 0.747
28 | GGCCUAUGGCUUCAUUAGCTT against Golt1a | inactive: 0.197
29 | CCCUCUUUAUCGUCUGUGATT against Gpha2 | active: -2.89

Part of the list above in a different format:
Row,Sequence,z-score
13,GGACUUGUGCAUUAAGUACTT against Fbxw11,inactive: -0.768
14,GGUUUCCAUGUUCUUCCGATT against Pxk,inactive: 0.37
